Test results reported in patent publication US20240166658A1, “PORPHYRIN DERIVATIVES AND USES THEREOF” (University of Tasmania, priority 2021, published 2024).

Legend:
[1] = PFCA guest response screening (RGB analysis, UV-Vis); conditions: ImageJ
Protocol: A Puluz® 20 cm portable light tent with moderate and dispersed white LED lighting was used to photograph samples using an iPhone 6S plus camera on a fixed tripod. The automatic flash settings were disabled so there was no reflective interference on the sample vials. Samples that were being directly compared were photographed together to ensure lighting conditions and settings were consistent. The photographs were analysed using ImageJ software according to the procedure of Gallagher, 2014b. Multiple RGB values were chosen from areas of each sample at random to provide an “average” RGB value (Menesatti et al., 2012; Gallagher, 2014a; Phuangsaijai et al., 2021). Those RGB values were used to produce an artificial colour tile for visual comparison, or parameterized for modelling.
To quantify a colour difference, RGB values were transformed within the CIELab colour space. The difference, expressed as ΔE, was determined by measuring the relative distance between two colours. The numeric ΔE value can be used to predict how the two colours are perceived by a standard observer; a ΔE>2 is considered the minimum value to achieve a “just noticeable difference” (JND) (Table 1), which is the smallest difference required for an untrained observer to be able to determine two colours as being different (Castillo et al., 2021).
(§1) Experiments were performed at concentrations that could be monitored by the naked eye for practical sensing of PFAS in the field. Complexes of hosts (9), (11) and (12) were formed with the nine different perfluorocarboxylic acids (PFCAs) shown in Table 2 above and the colours of each host−PFCA complex were photographed in a lightbox and analysed using ImageJ software RGB analysis. Pixels of the solution were chosen at random to provide an RGB value. Multiple RGB values were recorded for each host−PFCA solution, and an average colour can be produced. From those values an RGB parameter was used to give a response value for modelling (Tahir et al., 2016).
(§2) After preliminary screenings, UV-Vis spectra were collected before and after the addition of 1 molar equivalent of each PFCA for each host, and the degree of complexation was noted by shifts in the Soret bands and formation of a peak at ca. 650 nm. To eliminate dilution effects, PFCA guest solutions were prepared in the equivalent concentration of host. If there was a notable host−guest interaction for a particular PFCA, the host−guest binding was investigated with more rigorous UV-Vis experiments, binding studies, and further colour analyses. Throughout these investigations, PFOA was considered the “average” PFCA both because of its position in the range of PFCA sizes and because its prevalence is often an indication of broader PFAS contamination. In any experiment where binding was further investigated for a particular PFCA, it was typically replicated with PFOA for comparison.

[2] = PFCA guest response across the nine PFCAs (UV-Vis, RGB, one-way ANOVA variance)
Protocol: as §1, §2
One-way factorial ANOVA was used to examine the dependence (or independence) of two or more factors affecting the dependent variable concurrently, in the present case the change in absorption, or the change in RGB response across the tested PFCAs, or across the different hosts. This analysis was used to determine the variance in the responses of each host across the different PFCAs. […] Sensor (12) had the lowest deviation and variance across the nine PFCAS; although its colour change was not the most intense, it gives a similar response across the range of PFCAs.

[3] = Colorimetric matching of mixed PFCA samples, low concentration
Protocol: In the “low” PFCA concentration experiment, the RGB response values had the greatest rate of change from 0-40 ppb PFOA and appeared to level out between 40-80 ppb PFOA. In that instance, the regression was fit for a host : guest ratio of 0-0.8. To probe the sensor's response to a mixture of PFCAs, samples containing combinations of PFHxA, PFHpA, and PFDA in dichloromethane (7-28 ppb) were prepared and the RGB responses were collected. The PFCA concentrations for the samples were predicted using the PFOA regression (y=0.0591 ln(x)+0.037, R^2=0.9771).
The lowest concentration PFCA sample (7 ppb) was predicted to be ca. 11 ppb (58% error) from the PFOA regression, whilst the higher concentration mixed PFCA samples (14.1 and 28.8 ppb) were predicted to be ca. 16 and 23 ppb (17 and 18% error respectively). Thus, host (12) may be coupled with a phone camera to estimate mixed PFCA concentrations from RGB data with <20% error, or used visually for threshold detection of total PFCA concentrations above 10 ppb.

[4] = host + PFDoDA in dichloromethane

Compound | Av(Blue) ([1]; host + PFDA in dichloromethane) | Av(Green) ([1]; host + PFDA in dichloromethane) | Av(RGB) ([1]; host + PFDA in dichloromethane) | Av(Red) ([1]; host + PFDA in dichloromethane) | G − R ([1]; host + PFDA in dichloromethane) | Av(Blue) [1, 4] | Av(Green) [1, 4] | Av(RGB) [1, 4] | Av(Red) [1, 4] | G − R [1, 4] | Av(Blue) ([1]; host + PFOA in dichloromethane) | Av(Green) ([1]; host + PFOA in dichloromethane) | Av(RGB) ([1]; host + PFOA in dichloromethane) | Av(Red) ([1]; host + PFOA in dichloromethane) | G − R ([1]; host + PFOA in dichloromethane) | variance (σ^2) in the RGB values across the range of PFCAs ([2]; one-way ANOVA) | also measured
O=C(Nc1ccccc1-c1c2nc(c(-c3ccccc3NC(=O)C(F)(F)C(F)(F)C(F)(F)C(F)(F)C(F)(F)C(F)(F)C(F)(F)F)c3ccc([nH]3)c(-c3ccccc3NC(=O)C(F)(F)C(F)(F)C(F)(F)C(F)(F)C(F)(F)C(F)(F)C(F)(F)F)c3nc(c(-c4ccccc4NC(=O)C(F)(F)C(F)(F)C(F)(F)C(F)(F)C(F)(F)C(F)(F)C(F)(F)F)c4ccc1[nH]4)C=C3)C=C2)C(F)(F)C(F)(F)C(F)(F)C(F)(F)C(F)(F)C(F)(F)C(F)(F)F [host (9), α,α,α,α-5,10,15,20-tetrakis(2-(pentadecafluorooctanoylamino)phenyl)porphyrin] | 82 | 174 | 139 | 160 | 14 | 106 | 162 | 144 | 165 | −3 | 86 | 175 | 141 | 163 | 12 | 110 | –
O=C(Nc1ccccc1-c1c2nc(c(-c3ccccc3NC(=O)C(F)(F)C(F)(F)C(F)(F)F)c3ccc([nH]3)c(-c3ccccc3NC(=O)C(F)(F)C(F)(F)C(F)(F)F)c3nc(c(-c4ccccc4NC(=O)C(F)(F)C(F)(F)C(F)(F)F)c4ccc1[nH]4)C=C3)C=C2)C(F)(F)C(F)(F)C(F)(F)F [host (11), α,α,α,α-5,10,15,20-tetra(2-(heptafluorobutanoylamino)phenyl) porphyrin] | 102 | 165 | 145 | 167 | −2 | 101 | 165 | 145 | 170 | −5 | 82 | 172 | 138 | 161 | 11 | 135 | Soret band of the host−PFCA complex ([2]; host alone ca. 416 nm, dichloromethane): ca. 444 nm
O=C(Nc1ccccc1-c1c2nc(c(-c3ccccc3NC(=O)C(F)(F)C(F)(F)C(F)(F)C(F)(F)C(F)(F)C(F)(F)C(F)(F)C(F)(F)C(F)(F)C(F)(F)C(F)(F)F)c3ccc([nH]3)c(-c3ccccc3NC(=O)C(F)(F)C(F)(F)C(F)(F)C(F)(F)C(F)(F)C(F)(F)C(F)(F)C(F)(F)C(F)(F)C(F)(F)C(F)(F)F)c3nc(c(-c4ccccc4NC(=O)C(F)(F)C(F)(F)C(F)(F)C(F)(F)C(F)(F)C(F)(F)C(F)(F)C(F)(F)C(F)(F)C(F)(F)C(F)(F)F)c4ccc1[nH]4)C=C3)C=C2)C(F)(F)C(F)(F)C(F)(F)C(F)(F)C(F)(F)C(F)(F)C(F)(F)C(F)(F)C(F)(F)C(F)(F)C(F)(F)F [host (12), α,α,α,α-5,10,15,20-tetrakis(2-(tricosafluorododecanoylamino)phenyl) porphyrin] | 101 | 174 | 148 | 170 | 3 | 111 | 177 | 157 | 181 | −4 | 104 | 176 | 150 | 170 | 6 | 15 | prediction error ([3]; 7 ppb PFCA sample): 58%; prediction error ([3]; 14.1 ppb mixed PFCA sample): 17%; prediction error ([3]; 28.8 ppb mixed PFCA sample): 18%; error of mixed PFCA concentration estimated from RGB data ([3]; coupled with a phone camera): < 20%; variance (σ^2) of absorbance at 650 nm across PFCA chain lengths ([2]; one-way ANOVA): 9.7×10^−5; variance (σ^2) of green value from ImageJ analysis ([2]; one-way ANOVA): 14
